The experiment concerns the target T1, Tspan8 (human) (UniProt P19075).
T1 sequence: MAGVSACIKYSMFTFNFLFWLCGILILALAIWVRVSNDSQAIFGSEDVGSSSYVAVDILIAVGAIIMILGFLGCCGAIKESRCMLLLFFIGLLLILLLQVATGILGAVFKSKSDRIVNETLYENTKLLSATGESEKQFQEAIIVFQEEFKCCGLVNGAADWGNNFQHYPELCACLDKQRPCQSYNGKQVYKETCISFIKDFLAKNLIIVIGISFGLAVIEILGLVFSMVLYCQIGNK
Put plainly: affinity purification with mass spectrometry; Is1-tspan8 cells (express Tspan8) lysed in situ in Brij97; precleared; complexes isolated on beads coupled to mAb TS29.2 (Tspan8) or TS9 (CD9); eluted in Laemmli buffer with 1% SDS; non-reducing SDS-PAGE, trypsin digest, LTQ-Orbitrap Velos.

No constants are given. Whether binding was seen depends on the method and setting. Binding seen in cells or lysates may run through a third protein. A yes stands for co-enrichment or nearness to the bait. Other partners may have been found.

B1: endothelin converting enzyme 1 (ECE1) (enzyme, UniProt P42892 1-770)
chain: MRGVWPPPVSALLSALGMSTYKRATLDEEDLVDSLSEGDAYPNGLQVNFHSPRSGQRCWAARTQVEKRLVVLVVLLAAGLVACLAALGIQYQTRSPSVCLSEACVSVTSSILSSMDPTVDPCHDFFSYACGGWIKANPVPDGHSRWGTFSNLWEHNQAIIKHLLENSTASVSEAERKAQVYYRACMNETRIEELRAKPLMELIERLGGWNITGPWAKDNFQDTLQVVTAHYRTSPFFSVYVSADSKNSNSNVIQVDQSGLGLPSRDYYLNKTENEKVLTGYLNYMVQLGKLLGGGDEEAIRPQMQQILDFETALANITIPQEKRRDEELIYHKVTAAELQTLAPAINWLPFLNTIFYPVEINESEPIVVYDKEYLEQISTLINTTDRCLLNNYMIWNLVRKTSSFLDQRFQDADEKFMEVMYGTKKTCLPRWKFCVSDTENNLGFALGPMFVKATFAEDSKSIATEIILEIKKAFEESLSTLKWMDEETRKSAKEKADAIYNMIGYPNFIMDPKELDKVFNDYTAVPDLYFENAMRFFNFSWRVTADQLRKAPNRDQWSMTPPMVNAYYSPTKNEIVFPAGILQAPFYTRSSPKALNFGGIGVVVGHELTHAFDDQGREYDKDGNLRPWWKNSSVEAFKRQTECMVEQYSNYSVNGEPVNGRHTLGENIADNGGLKAAYRAYQNWVKKNGAEHSLPTLGLTNNQLFFLGFAQVWCSVRTPESSHEGLITDPHSPSRFRVIGSLSNSKEFSEHFRCPPGSPMNPPHKCEVW
Consider B1, for which the binding result is recorded as “binds”.

(Values after paper PMC10571763.)
